Data as given in the supplement of paper PMC7666118.
The other results are listed elsewhere or left out.

Sequences of proteins named here, by UniProt entry; tags and fusion partners are left off. A change or cut given only in a name is not applied to a line headed by its entry.
UniProt P39210: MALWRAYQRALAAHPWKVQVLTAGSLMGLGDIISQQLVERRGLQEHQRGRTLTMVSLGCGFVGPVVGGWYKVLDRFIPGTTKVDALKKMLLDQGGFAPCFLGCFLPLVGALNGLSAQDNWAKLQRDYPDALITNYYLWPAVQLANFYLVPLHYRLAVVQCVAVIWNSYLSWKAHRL
UniProt Q8NHS3: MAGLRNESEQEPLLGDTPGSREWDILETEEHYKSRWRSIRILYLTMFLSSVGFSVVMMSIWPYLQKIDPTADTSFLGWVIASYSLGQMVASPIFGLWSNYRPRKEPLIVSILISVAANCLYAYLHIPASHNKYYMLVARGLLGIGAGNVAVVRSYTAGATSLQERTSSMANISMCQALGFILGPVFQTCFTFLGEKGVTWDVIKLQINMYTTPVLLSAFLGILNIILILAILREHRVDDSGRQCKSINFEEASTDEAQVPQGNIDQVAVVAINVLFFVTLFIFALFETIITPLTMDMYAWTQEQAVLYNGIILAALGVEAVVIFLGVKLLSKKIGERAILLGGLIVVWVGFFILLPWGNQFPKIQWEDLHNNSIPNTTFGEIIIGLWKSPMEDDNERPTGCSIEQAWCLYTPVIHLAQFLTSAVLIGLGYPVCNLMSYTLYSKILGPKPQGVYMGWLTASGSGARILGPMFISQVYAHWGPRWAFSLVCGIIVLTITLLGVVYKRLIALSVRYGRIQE
UniProt O43318: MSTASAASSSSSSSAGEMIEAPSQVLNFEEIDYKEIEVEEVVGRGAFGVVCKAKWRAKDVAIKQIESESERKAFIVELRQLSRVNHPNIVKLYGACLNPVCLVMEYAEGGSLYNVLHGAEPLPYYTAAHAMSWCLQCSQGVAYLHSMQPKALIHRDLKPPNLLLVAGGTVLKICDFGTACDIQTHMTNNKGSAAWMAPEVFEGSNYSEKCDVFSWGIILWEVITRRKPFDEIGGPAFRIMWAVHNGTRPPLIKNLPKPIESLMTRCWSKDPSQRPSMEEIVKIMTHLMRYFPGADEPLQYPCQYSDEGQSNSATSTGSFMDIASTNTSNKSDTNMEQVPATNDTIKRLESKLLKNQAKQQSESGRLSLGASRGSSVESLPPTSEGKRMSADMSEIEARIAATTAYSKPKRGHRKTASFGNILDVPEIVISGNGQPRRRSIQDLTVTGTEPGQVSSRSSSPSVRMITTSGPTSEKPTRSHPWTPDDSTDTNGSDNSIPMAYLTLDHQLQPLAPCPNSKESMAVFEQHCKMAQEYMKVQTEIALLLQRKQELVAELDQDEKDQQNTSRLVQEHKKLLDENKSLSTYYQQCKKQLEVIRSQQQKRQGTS
UniProt Q969Z3: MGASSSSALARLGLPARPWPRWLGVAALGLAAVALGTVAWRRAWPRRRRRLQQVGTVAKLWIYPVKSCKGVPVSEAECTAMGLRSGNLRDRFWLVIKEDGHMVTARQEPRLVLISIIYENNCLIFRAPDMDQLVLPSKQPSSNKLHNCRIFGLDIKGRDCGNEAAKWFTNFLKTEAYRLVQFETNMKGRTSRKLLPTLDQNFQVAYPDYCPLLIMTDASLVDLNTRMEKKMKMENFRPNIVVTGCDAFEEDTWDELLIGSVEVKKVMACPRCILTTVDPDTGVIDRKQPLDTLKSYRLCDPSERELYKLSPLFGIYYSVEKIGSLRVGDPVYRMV
UniProt Q99549: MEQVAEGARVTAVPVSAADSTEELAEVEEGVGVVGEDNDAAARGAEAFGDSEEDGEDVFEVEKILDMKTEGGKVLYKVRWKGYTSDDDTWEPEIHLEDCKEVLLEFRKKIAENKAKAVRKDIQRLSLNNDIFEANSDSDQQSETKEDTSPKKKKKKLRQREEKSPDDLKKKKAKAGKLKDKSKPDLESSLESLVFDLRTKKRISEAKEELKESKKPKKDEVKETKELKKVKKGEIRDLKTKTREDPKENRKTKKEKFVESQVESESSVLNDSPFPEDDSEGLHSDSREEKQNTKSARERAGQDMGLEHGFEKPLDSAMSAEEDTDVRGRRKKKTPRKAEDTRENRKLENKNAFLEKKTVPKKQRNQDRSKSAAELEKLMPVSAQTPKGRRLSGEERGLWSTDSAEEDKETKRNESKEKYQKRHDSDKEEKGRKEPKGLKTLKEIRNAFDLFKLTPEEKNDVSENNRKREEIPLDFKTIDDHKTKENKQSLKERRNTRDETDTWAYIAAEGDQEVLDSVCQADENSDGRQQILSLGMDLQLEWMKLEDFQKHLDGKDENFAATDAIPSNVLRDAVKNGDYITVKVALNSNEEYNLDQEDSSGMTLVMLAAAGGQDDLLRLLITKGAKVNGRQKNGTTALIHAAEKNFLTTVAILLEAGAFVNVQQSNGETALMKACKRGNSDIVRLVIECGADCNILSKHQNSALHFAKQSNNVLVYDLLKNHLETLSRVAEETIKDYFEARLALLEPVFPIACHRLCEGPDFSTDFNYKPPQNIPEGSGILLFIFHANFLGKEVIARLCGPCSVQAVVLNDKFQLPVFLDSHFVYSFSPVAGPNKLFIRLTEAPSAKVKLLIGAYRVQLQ
UniProt Q9NPJ6: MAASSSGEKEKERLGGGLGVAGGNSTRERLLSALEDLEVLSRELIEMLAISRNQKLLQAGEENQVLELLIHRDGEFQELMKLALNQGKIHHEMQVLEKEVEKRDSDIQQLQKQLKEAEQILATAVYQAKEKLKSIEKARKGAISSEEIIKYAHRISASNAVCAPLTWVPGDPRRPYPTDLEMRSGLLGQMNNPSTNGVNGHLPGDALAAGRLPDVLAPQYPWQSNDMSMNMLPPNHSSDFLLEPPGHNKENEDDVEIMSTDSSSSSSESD
UniProt Q15773: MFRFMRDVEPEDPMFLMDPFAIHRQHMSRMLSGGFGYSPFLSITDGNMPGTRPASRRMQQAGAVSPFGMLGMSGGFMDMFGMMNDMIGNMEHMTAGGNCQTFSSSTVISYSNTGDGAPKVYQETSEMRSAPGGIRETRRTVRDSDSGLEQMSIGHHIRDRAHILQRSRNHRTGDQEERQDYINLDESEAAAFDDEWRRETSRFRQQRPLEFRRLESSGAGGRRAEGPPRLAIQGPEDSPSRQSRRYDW

The targets below were run with COc1ccc(Cn2ccc3ccc(C(=O)NO)cc32)cc1 (assay: dose-dependent thermal stabilisation call (2D-TPP, DLPTP, 10% FDR) (binary (1 = stabilised)); higher = stabilised by the compound). Conditions: system: HL-60 intact cells; concentration range 0.04-10 µM.
For MPV17 (UniProt P39210), the “dose-dependent thermal stabilisation call” value was inactive: 0.
MFSD8 (UniProt Q8NHS3) was tested, and the “dose-dependent thermal stabilisation call” value was inactive: 0.
In the case of MAP3K7 (UniProt O43318), the “dose-dependent thermal stabilisation call” value is reported as inactive: 0.
MOSC2 (UniProt Q969Z3) was tested, and the “dose-dependent thermal stabilisation call” value was inactive: 0.
With MPHOSPH8 (UniProt Q99549) the “dose-dependent thermal stabilisation call” value was inactive: 0.
With MED4 (UniProt Q9NPJ6) the “dose-dependent thermal stabilisation call” value was inactive: 0.
With MLF2 (UniProt Q15773) the “dose-dependent thermal stabilisation call” value was inactive: 0.
In the case of MRPL18 (UniProt Q9H0U6), the “dose-dependent thermal stabilisation call” value is reported as inactive: 0.
MRPS15 (UniProt P82914) was tested, and the “dose-dependent thermal stabilisation call” value was inactive: 0.
In the case of MRPL13 (UniProt Q9BYD1), the “dose-dependent thermal stabilisation call” value is reported as inactive: 0.
